Paper PMC9122601
The exact form of at least one protein or probe is not confirmed. At least one verdict rests on a figure or table, not on a statement of the authors.

Biological target: His6-BrxR (BrxR-Efer) (Escherichia fergusonii (plasmid pEFER)) (UniProt B7L3Y3)
Test: competition with a labelled probe
Conditions: 20-fold excess versus labelled WT probe; EMSA: 10 mM Tris-HCl pH 7.9, 150 mM KCl, 0.5 mM EDTA, 0.2 mM DTT, 0.1% Triton X-100, 13% glycerol (1x of 5x buffer), 1 ug poly(dI-dC) per 10 ul, 2500 fmol probe; recombinant protein; residues 14-308; protein details: N-terminal His6

“GACGACTTGTTGATACTATGAAACCTACTGAAAAACAGTAGGTTGCTTGATGGCATTCAATCGATGGCTTAAGCTTTTGTCAGTGCGCA (double strand) [Unlabelled WT IR1-IR2 competitor]”: binds.
